Measurements from patent US20160009812A1 (University of Texas, published 2016).
No constants are given. Whether binding was seen depends on the method and setting. Some results given as binding are weak or reduced against the parent protein; the word gives no strength.

Amino acid sequences for entries named in this document (tags omitted). Residues count along the entry.
UniProt P08670, residues 2-466: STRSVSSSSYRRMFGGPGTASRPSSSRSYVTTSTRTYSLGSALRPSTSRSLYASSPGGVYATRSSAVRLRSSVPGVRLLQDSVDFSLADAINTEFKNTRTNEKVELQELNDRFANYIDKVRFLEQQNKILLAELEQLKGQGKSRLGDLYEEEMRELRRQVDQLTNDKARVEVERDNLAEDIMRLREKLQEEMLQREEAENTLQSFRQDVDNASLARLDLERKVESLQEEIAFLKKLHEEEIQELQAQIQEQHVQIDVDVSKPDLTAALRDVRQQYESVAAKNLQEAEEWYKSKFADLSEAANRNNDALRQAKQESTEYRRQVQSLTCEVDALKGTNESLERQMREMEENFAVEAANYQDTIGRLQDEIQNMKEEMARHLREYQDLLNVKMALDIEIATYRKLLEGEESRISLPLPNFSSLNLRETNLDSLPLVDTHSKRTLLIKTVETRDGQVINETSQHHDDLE

How the values were obtained:
[1] = molecular target: Recombinant human vimentin (rhVim) with 6-His (R&D Systems) (human) (UniProt P08670); assay: western blot of rhVim
[2] = molecular target: Recombinant human vimentin (rhVim) with 6-His (R&D Systems) (human) (UniProt P08670); assay: western blot, 10, 100 and 1000 ng rhVim

B1: 84-1 monoclonal antibody (antibody, V domains shown)
VH: QVQLKQSGPGLVQPSQSLSITCTVSGFSLTRYGVHWVRQSPGKGLEWLGVIWSGGSTDYNAAFISRLSFSKDNSKSQVFFKMNSLQANDTAIYYCARRSYYYAMDYWGQGTSVTVS
VL: DVLMTQTPLSLPVSLGDQASISCRSSQSIVHRIGNTYLEWYLQKPGQSPKLLIYKVSNRFSGVPDRFSGSGSGTDFTLKISRVEAEDLGVYYCFQGSHVPLTFGAGTKLEL
notes: Mouse monoclonal antibody from hybridoma 84-1, raised against rhVim with 6-His; It was detected with anti-mouse IgG; also called 84-1 mAb; 84-1 antibody
With B1 the binding [1] was “binds” and the binding [2] was “binds”.
